Earlier results in patent publication US20100137403A1, “METHOD FOR ENHANCING COGNITION OR INHIBITING COGNITIVE DECLINE” (priority 2008, published 2010).
At least one structure is not confirmed: it was looked up by name or label, or the drawing left a doubt.

Settings: long-term clinical trial without placebo control; cited from earlier work

SMILES: COC(=O)C1=C(C)NC(C)=C(C(=O)OC)C1c1ccccc1[N+](=O)[O-] [nifedipine]
- deterioration in cognitive function: 31%
